Some of the results follow.
Assays:
Assay in all cases: log2 fold change, soluble protein after heating vs DMSO (PISA); higher = thermal stabilisation; K562 cells, 10 uM, 30 min; active = over 0.2 and 3.5 SD of the protein, either way, in both replicates (recomputed)
[1] = compound: C1=CC=C(C=C1)[C@H](COC2=CC3=C(C=C2)NC(=O)N3)NC(=O)C4=CC=CN(C4=O)CC5=CC(=C(C=C5)F)F
Outline: (§1)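 K562 cells at 2×10^6 cells/mL were treated for 30 min with 10 μM compound, and aliquots were heated for 3 min over 48°C-58°C before pooling. Extraction used PBS with 0.5% NP-40 at 4°C, and soluble protein was the supernatant after 21,000xg for 90 min, measured by TMTpro 16plex LC-MS/MS with channel sums equalised. Thermal stability values, relative to control samples and from duplicates, are log2 fold changes.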

Chains of the proteins cited; added tags and fusions are not shown. Lines headed by an entry give the natural chain unless they say otherwise; changes in a name come on top.
UniProt Q9NY93: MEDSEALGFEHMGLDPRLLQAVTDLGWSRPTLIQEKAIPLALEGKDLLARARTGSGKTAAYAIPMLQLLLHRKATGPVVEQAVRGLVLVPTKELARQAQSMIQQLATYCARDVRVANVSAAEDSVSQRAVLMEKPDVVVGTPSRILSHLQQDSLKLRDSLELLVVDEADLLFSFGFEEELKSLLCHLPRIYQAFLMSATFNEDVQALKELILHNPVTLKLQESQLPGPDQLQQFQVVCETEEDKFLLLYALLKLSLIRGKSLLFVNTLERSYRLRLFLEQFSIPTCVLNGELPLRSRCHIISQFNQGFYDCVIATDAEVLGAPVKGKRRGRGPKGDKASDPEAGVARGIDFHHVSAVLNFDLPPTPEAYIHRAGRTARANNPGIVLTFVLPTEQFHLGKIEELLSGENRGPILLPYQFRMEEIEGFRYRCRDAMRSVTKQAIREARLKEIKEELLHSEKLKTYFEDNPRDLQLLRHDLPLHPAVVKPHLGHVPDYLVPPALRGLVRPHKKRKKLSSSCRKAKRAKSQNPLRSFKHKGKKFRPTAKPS
UniProt Q99766: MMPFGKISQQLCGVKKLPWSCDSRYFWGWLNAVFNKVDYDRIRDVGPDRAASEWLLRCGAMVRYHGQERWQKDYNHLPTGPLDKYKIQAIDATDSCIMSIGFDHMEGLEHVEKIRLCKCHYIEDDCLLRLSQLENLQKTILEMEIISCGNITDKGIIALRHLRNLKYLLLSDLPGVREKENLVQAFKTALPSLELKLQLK
UniProt P30046: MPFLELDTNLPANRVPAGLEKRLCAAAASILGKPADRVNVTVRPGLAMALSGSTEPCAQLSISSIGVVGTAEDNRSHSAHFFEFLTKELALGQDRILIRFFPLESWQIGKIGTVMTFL
UniProt Q9NW81: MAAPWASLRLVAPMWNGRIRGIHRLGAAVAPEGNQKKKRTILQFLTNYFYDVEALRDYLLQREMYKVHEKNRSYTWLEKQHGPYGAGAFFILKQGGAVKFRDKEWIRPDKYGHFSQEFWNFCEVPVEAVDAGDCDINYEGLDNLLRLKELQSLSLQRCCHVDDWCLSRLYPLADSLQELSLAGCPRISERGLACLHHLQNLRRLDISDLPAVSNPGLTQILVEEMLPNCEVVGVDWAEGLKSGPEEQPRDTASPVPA
UniProt Q8IX18: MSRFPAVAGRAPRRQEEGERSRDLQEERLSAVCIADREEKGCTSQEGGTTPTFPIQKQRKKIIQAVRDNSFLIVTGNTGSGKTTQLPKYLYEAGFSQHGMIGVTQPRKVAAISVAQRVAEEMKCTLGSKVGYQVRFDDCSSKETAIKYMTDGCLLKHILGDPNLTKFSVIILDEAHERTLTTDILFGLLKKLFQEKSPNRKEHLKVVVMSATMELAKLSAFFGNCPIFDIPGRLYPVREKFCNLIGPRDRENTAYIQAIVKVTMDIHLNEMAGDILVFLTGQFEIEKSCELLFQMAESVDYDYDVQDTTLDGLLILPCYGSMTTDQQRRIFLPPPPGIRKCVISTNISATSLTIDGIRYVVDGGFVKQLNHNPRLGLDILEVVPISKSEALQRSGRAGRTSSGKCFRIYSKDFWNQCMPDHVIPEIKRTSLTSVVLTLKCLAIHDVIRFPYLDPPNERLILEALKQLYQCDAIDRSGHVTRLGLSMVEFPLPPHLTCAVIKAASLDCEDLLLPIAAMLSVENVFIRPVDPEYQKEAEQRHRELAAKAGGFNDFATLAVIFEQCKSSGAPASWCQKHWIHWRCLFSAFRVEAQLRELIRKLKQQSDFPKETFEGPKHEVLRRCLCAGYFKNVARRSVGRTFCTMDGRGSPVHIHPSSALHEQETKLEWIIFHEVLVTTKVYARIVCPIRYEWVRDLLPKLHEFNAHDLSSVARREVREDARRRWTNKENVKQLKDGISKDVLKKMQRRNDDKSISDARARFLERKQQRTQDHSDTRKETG
UniProt Q9UGM3: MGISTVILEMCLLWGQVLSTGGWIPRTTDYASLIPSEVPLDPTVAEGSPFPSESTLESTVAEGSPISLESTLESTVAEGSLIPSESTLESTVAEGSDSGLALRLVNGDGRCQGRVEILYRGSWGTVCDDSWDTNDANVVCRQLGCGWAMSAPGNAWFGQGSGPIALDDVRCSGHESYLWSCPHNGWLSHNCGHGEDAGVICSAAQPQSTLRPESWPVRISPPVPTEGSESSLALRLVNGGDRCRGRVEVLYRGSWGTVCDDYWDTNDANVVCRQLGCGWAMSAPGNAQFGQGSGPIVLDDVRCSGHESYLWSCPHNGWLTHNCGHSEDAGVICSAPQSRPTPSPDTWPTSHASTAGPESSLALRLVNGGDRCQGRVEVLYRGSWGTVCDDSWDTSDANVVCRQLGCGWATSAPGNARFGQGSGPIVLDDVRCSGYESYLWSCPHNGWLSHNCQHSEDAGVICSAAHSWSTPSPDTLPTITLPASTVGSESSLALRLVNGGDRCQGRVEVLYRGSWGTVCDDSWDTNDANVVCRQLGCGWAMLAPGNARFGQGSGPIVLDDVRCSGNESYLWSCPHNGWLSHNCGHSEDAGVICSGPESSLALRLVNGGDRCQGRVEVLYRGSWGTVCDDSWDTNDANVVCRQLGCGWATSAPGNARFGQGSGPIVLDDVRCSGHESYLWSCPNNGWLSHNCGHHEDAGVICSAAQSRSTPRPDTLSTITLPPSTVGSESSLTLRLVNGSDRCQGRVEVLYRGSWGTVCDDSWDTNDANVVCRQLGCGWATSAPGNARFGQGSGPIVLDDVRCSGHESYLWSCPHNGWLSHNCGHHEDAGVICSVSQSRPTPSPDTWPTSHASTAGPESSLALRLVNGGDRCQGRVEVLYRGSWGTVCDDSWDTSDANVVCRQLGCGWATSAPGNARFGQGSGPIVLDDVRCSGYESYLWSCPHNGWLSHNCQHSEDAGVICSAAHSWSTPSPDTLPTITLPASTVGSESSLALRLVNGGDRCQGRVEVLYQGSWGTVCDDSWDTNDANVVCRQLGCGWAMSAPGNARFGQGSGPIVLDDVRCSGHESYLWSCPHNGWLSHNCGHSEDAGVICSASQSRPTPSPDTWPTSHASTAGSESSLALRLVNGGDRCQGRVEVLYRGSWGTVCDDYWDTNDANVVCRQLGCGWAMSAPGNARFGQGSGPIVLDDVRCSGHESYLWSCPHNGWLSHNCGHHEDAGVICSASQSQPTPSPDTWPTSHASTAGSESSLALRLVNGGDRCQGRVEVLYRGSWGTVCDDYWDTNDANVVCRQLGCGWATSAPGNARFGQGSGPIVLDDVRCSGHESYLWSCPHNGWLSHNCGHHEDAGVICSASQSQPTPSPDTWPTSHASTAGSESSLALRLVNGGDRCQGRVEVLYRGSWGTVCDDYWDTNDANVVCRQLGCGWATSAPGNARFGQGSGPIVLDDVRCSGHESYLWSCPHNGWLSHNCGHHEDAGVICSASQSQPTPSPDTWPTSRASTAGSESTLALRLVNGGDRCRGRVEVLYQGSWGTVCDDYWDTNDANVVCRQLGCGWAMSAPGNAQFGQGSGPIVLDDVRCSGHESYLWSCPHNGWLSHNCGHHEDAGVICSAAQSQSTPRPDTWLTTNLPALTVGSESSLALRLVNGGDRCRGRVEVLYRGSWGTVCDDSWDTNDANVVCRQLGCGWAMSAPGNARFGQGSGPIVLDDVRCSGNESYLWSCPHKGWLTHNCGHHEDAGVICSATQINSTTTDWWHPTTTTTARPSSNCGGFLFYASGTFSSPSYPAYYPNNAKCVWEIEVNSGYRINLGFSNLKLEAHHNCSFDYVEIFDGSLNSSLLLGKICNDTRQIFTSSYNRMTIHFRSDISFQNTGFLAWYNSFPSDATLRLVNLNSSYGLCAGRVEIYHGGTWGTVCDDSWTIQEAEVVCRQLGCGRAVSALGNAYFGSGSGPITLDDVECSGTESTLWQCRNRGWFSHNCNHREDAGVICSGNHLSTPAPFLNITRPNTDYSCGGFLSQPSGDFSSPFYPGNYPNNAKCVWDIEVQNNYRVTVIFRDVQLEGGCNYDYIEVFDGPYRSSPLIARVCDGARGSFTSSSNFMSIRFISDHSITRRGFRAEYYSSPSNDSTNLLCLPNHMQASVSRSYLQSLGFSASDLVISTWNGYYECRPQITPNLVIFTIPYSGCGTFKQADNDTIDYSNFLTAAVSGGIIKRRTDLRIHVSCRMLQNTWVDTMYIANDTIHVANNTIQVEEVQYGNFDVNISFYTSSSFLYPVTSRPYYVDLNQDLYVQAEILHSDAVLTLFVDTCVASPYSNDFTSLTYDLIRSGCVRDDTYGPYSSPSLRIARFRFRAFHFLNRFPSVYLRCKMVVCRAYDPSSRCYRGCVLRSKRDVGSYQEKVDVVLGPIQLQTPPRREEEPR
UniProt Q96GE9: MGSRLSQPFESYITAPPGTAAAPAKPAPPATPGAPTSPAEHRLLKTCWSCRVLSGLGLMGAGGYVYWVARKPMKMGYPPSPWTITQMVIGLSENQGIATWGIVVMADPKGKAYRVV
UniProt O00571: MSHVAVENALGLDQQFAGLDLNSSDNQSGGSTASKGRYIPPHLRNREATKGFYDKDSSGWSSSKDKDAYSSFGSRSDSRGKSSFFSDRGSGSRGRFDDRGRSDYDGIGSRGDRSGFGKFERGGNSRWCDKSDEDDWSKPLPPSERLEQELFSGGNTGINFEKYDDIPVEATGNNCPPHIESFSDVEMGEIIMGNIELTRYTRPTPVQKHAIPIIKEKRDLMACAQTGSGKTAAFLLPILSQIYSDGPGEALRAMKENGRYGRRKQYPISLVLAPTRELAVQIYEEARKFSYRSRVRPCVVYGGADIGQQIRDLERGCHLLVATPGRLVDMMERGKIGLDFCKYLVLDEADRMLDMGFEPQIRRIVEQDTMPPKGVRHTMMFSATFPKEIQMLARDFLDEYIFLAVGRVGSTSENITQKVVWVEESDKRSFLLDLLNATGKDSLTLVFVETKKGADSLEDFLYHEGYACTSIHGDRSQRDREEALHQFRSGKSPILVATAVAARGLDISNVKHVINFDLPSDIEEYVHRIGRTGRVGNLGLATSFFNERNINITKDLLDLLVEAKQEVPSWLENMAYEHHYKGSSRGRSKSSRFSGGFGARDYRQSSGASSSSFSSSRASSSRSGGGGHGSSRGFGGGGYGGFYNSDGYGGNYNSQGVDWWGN
UniProt P09622, whole entry, looked up: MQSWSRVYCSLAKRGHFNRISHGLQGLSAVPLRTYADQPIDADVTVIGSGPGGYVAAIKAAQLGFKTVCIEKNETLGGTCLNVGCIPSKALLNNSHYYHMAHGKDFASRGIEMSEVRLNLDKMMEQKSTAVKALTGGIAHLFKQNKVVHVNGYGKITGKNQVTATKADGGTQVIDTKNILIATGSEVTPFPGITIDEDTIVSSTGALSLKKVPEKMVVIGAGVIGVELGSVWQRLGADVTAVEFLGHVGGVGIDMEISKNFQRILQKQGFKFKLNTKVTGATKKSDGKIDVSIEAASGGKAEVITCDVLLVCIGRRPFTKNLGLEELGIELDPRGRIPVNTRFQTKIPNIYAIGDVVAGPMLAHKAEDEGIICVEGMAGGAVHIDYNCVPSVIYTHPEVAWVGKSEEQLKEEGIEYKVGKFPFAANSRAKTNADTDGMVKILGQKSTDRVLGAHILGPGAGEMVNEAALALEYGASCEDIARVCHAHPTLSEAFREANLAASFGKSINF
UniProt Q9GZP9: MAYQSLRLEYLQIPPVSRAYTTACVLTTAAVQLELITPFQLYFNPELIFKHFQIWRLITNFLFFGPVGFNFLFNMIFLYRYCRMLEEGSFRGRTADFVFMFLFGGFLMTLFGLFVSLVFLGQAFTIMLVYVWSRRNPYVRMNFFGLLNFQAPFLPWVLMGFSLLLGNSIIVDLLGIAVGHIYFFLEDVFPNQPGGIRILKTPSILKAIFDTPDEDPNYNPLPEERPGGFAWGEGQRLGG
UniProt P00374: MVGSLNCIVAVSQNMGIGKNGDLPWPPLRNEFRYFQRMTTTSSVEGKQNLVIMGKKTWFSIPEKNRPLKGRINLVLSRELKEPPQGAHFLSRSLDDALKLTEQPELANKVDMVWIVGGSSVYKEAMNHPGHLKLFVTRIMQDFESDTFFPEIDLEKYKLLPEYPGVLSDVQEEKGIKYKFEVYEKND
UniProt O60832: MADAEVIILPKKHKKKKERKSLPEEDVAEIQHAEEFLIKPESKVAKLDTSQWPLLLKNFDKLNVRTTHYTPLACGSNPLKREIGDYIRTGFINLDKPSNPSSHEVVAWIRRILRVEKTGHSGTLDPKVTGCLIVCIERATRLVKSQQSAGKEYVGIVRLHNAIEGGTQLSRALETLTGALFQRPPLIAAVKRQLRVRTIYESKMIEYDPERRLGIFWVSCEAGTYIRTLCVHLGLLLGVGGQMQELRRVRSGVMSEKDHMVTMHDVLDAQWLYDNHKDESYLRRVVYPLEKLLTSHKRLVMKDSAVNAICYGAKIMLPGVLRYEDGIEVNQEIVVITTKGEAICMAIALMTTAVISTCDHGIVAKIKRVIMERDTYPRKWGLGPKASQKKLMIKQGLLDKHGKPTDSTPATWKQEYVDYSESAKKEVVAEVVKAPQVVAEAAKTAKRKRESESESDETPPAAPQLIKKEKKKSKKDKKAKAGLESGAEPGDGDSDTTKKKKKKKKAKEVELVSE

[2] = compound: CC1=C(SC2=C1C(=N[C@H](C3=NN=C(N32)C)CC(=O)N)C4=CC=C(C=C4)Cl)C
Outline: as §1

[3] = compound: CC1=C2C(=CC=C1)N=C(N(C2=O)C3=CC=CC=C3C)CN4C=NC5=C(N=CN=C54)N
Outline: as §1

[4] = compound: Cc1sc2c(c1C)C(c1ccc(Cl)cc1)=N[C@@H](CC(=O)OC(C)(C)C)c1nnc(C)n1-2
Outline: as §1

[5] = compound: c1ccc([C@@H]2C[C@H]2NC2CCNCC2)cc1
Outline: as §1

Measured: log2 fold change

DDX19B (UniProt Q9UMR2)
inactive: [1] -0.038 | [2] 0.072 | [3] 0.027 | [4] -0.046 | [5] -0.014

DNAH5 (UniProt Q8TE73)
inactive: [1] 0.074 | [2] 0.023 | [3] 0.08 | [4] 0.139 | [5] 0.062

DIAPH1 (UniProt O60610)
inactive: [1] -0.073 | [2] -0.027 | [3] 0.026 | [4] 0.049 | [5] -0.018

DGAT1 (UniProt O75907)
inactive: [1] -0.088 | [2] 0.105 | [3] 0.081 | [4] -0.119 | [5] 0.102

Taken from the results shown (2 entries):
DIAPH1 (UniProt O60610)
inactive: [1] -0.073 | [2] -0.027 | [3] 0.026 | [4] 0.049 | [5] -0.018

DGAT1 (UniProt O75907)
inactive: [1] -0.088 | [2] 0.105 | [3] 0.081 | [4] -0.119 | [5] 0.102

Remaining list, next part

DDRGK1 (UniProt Q96HY6)
inactive: [1] 0.019 | [2] -0.008 | [3] 0.012 | [4] -0.018 | [5] 0.063

DDX56 (UniProt Q9NY93)
inactive: [1] 0.092 | [2] -0.231 | [3] -0.061 | [4] 0.094 | [5] 0.001

DMXL1 (UniProt Q9Y485)
inactive: [1] -0.017 | [2] 0.003 | [3] 0.071 | [4] -0.016 | [5] -0.05

DDHD1 (UniProt Q8NEL9)
inactive: [1] -0.011

DECR1 (UniProt E5RJD2)
inactive: [1] 0.079

DENND4C isoform 7 (UniProt Q5VZ89)
inactive: [1] -0.102 | [2] -0.04 | [3] 0.015 | [4] 0.013 | [5] 0.021

DDX5 (UniProt P17844)
inactive: [1] -0.061 | [2] 0.008 | [3] 0.067 | [4] -0.027 | [5] 0.038

DHPS (UniProt M0R1T2)
inactive: [1] -0.155

DMAC2L (UniProt Q99766)
inactive: [1] -0.019 | [2] 0.075 | [3] 0.114 | [4] -0.043 | [5] -0.025

DDT (UniProt P30046)
inactive: [1] -0.004 | [2] 0.2 | [3] 0.078 | [4] -0.126 | [5] 0.037

DDX49 (UniProt Q9Y6V7)
inactive: [1] 0.021 | [2] -0.056 | [3] -0.117 | [4] 0.056 | [5] 0.044

DERL1 (UniProt Q9BUN8)
inactive: [1] 0.011 | [2] -0.034 | [3] 0.017 | [4] -0.011 | [5] 0.085

DDHD2 (UniProt O94830)
inactive: [1] -0.004 | [2] 0.025 | [3] 0.113 | [4] -0.041 | [5] -0.01

DNAJA1 (UniProt P31689)
inactive: [1] 0.01 | [2] 0.03 | [3] 0.037 | [4] -0.033 | [5] 0.029

DMAC2 isoform 4 (UniProt Q9NW81)
inactive: [1] 0.03 | [2] 0.033 | [3] -0.002 | [4] -0.042 | [5] -0.038

DGKZ (UniProt Q13574)
inactive: [1] -0.008 | [2] 0.029 | [3] -0.005 | [4] -0.027 | [5] 0.021

DDX23 (UniProt Q9BUQ8)
inactive: [1] 0.141 | [2] -0.229 | [3] -0.218 | [4] 0.171 | [5] 0.047

DDX21 (UniProt Q9NR30)
inactive: [1] -0.062 | [2] -0.222 | [3] -0.255 | [4] 0.027 | [5] 0.009

DHX40 (UniProt Q8IX18)
inactive: [1] 0.026 | [2] 0.101 | [3] 0.072 | [4] 0.093 | [5] -0.022

DDOST (UniProt P39656)
inactive: [1] 0.018 | [2] -0.009 | [3] -0.078 | [4] -0.022 | [5] 0

DFFA isoform 2 (UniProt O00273)
inactive: [1] 0.047

DDX39A (UniProt O00148)
inactive: [1] -0.174 | [2] 0.063 | [3] 0.025 | [4] 0.015 | [5] -0.01

DDX25 (UniProt Q9UHL0)
inactive: [1] 0.155 | [2] -0.089 | [3] -0.383 | [4] -0.209 | [5] 0.128

DDX41 (UniProt Q9UJV9)
inactive: [1] -0.004 | [2] -0.005 | [3] -0.106 | [4] -0.059 | [5] -0.004

DDAH2 (UniProt O95865)
inactive: [1] 0.011 | [2] 0.117 | [3] 0.067 | [4] -0.091 | [5] -0.023

DMBT1 isoform 6 (UniProt Q9UGM3)
inactive: [1] -0.415

DCXR (UniProt Q7Z4W1)
inactive: [1] 0.032 | [2] -0.001 | [3] 0.059 | [4] 0.004 | [5] 0.05

DDB1 isoform 2 (UniProt Q16531)
inactive: [1] 0.028

DMAC1 (UniProt Q96GE9)
inactive: [1] 0.058 | [2] -0.041 | [3] 0.05 | [4] -0.085 | [5] 0.023

DENND10 (UniProt Q8TCE6)
inactive: [1] 0.035 | [2] 0.083 | [3] 0.103 | [4] 0.057 | [5] -0.008

DDX3X (UniProt O00571)
inactive: [1] 0.119 | [2] -0.185 | [3] -0.122 | [4] 0.279 | [5] 0.03

DDX39B isoform 2 (UniProt Q13838)
inactive: [1] 0.009 | [2] -0.024 | [3] 0.008 | [4] 0.024 | [5] 0.007

DIMT1 (UniProt Q9UNQ2)
inactive: [1] 0.045 | [2] -0.203 | [3] -0.222 | [4] 0.125 | [5] 0.005

DNAJA2 (UniProt O60884)
inactive: [1] -0.002 | [2] 0.004 | [3] 0.054 | [4] -0.022 | [5] -0.013

DHRS4L1 (UniProt P0CG22)
inactive: [1] 0.013 | [2] 0.03 | [3] 0.055 | [4] -0.068 | [5] -0.019

DLD (UniProt P09622)
inactive: [1] 0.016 | [2] 0.006 | [3] -0.005 | [4] -0.016 | [5] 0.044

DFFB (UniProt O76075)
inactive: [1] -0.027 | [2] 0.099 | [3] 0.048 | [4] 0.202 | [5] 0.049

DDX59 (UniProt Q5T1V6)
inactive: [1] 0.033 | [2] 0.006 | [3] 0.12 | [4] -0.059 | [5] 0.056

DNAH9 (UniProt Q9NYC9)
inactive: [1] 0.024 | [2] 0.046 | [3] 0.011 | [4] 0.031 | [5] 0.021

DHRS2 (UniProt Q13268)
inactive: [1] 0.065 | [2] 0.038 | [3] 0.002 | [4] -0.033 | [5] -0.007

DHPS (UniProt P49366)
inactive: [1] -0.014 | [2] 0.013 | [3] -0.014 | [4] 0.013 | [5] 0.081

DDB1 (UniProt Q16531)
inactive: [1] 0.023 | [2] -0.003 | [3] 0.01 | [4] 0 | [5] 0.016

DNAH11 (UniProt Q96DT5)
inactive: [1] 0.047 | [2] -0.387 | [3] 0.089 | [4] -0.021 | [5] 0.092

2 entries picked at random from the list so far, as already listed:
DHPS (UniProt P49366)
inactive: [1] -0.014 | [2] 0.013 | [3] -0.014 | [4] 0.013 | [5] 0.081

DNAH11 (UniProt Q96DT5)
inactive: [1] 0.047 | [2] -0.387 | [3] 0.089 | [4] -0.021 | [5] 0.092

(next part)

DIABLO (UniProt Q9NR28)
inactive: [1] 0.008 | [2] 0.061 | [3] -0.043 | [4] 0.011 | [5] -0.032

DES (UniProt P17661)
inactive: [1] 0.164 | [2] 0.334 | [3] 0.025 | [4] 0.021 | [5] 0

DHRS11 (UniProt Q6UWP2)
inactive: [1] -0.029 | [2] 0.095 | [3] 0.043 | [4] -0.038 | [5] -0.037

DERL2 (UniProt Q9GZP9)
inactive: [1] -0.001 | [2] -0.139 | [3] 0.054 | [4] -0.005 | [5] 0.034

DENND6A (UniProt Q8IWF6)
inactive: [1] 0.106 | [2] 0.006 | [3] 0.083 | [4] -0.062 | [5] -0.081

DHFR (UniProt P00374)
inactive: [1] -0.077 | [2] -0.014 | [3] 0.083 | [4] 0.058 | [5] 0.396

DLG1 isoform 2 (UniProt Q12959)
inactive: [1] -0.086 | [2] 0.029 | [3] 0.056 | [4] 0.068 | [5] -0.021

DNAH8 (UniProt Q96JB1)
inactive: [1] -0.001 | [2] -0.047 | [3] 0.164 | [4] -0.021 | [5] 0.009

DLG2 isoform 2 (UniProt Q15700)
inactive: [1] -0.05 | [2] 0.032 | [3] 0.098 | [4] -0.039 | [5] 0.051

DKC1 (UniProt O60832)
inactive: [1] 0.032 | [2] -0.098 | [3] -0.047 | [4] 0.063 | [5] 0.055
